Data from PubChem BioAssay AID743266 (National Center for Advancing Translational Sciences (NCATS), 2014).
In all, about 410,000 compounds went through this assay and about 310 (0.076%) were called active. The shares of active, inactive and inconclusive entries below differ from those in the screen. Calls come from the whole dose curve; as a rule, active = well fitted activation curve with a large enough effect; inconclusive = small, poorly fitted or top-dose-only effect, or another doubt; inactive = no such curve, though single readings can be large or run the other way. Potencies of inconclusive entries are doubtful fits and often do not repeat.

Amino acid sequences for entries named in this document (tags omitted). A change or cut given only in a name is not applied to a line headed by its entry.
UniProt Q03431: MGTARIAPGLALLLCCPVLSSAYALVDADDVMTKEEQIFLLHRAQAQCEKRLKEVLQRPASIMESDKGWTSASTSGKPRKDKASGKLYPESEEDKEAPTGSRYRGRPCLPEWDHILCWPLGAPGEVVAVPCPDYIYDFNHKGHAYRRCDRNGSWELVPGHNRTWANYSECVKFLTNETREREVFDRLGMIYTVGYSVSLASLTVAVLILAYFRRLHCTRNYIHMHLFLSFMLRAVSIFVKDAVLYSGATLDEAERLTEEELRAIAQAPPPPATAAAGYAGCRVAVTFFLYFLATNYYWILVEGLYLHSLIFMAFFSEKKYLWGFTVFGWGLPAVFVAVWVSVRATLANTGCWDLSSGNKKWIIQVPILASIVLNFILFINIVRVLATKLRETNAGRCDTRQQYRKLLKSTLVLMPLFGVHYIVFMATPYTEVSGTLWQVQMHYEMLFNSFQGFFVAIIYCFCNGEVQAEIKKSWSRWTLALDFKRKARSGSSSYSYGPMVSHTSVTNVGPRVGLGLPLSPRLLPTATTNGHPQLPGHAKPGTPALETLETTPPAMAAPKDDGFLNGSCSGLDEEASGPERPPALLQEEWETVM

What follows are compounds tested against Parathyroid hormone/parathyroid hormone-related peptide receptor (Homo sapiens) (UniProt Q03431) (assay: qHTS for PTHR1 Agonists: Primary Screen). Conditions: HEK293 GP2 PTHR1 cells, GloSensor cAMP luminescence, 1 h; activation: at 115 µM (top of the series) unless noted; series mostly up to 115 µM.
Method in brief: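 HEK-293-derived GP2 cells expressing PTHR1 and a GloSensor cAMP reporter, 3,000/well, plated overnight, given luciferin plus IBMX (each 0.5 mM as added) for 1 h at 37 °C, then compound for 1 h at 37 °C. Luminescence was read after 15 min at room temperature.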
Note: nearly all actives have a fitted effect of over 55% in size.
Potency is the fitted concentration of half-maximal effect.

activation, inconclusive:
COC(=O)c1cc(S(=O)(=O)Nc2nn(C)c3cccc(F)c23)oc1C 64.4% [activator], O=S1(=O)N=C(N(CCO)/N=C/c2ccccc2)c2ccccc21 35.7% [activator], Cc1ccc(C(=O)NCC(=O)Nc2ccncc2)cc1C 37.6% [activator], Fc1cccc(-n2c(-c3ccco3)nc3nc4ccccc4nc32)c1 34.9% [activator] [at 57.5 µM], CCc1ccc(NC(=O)CSc2nc3n[nH]c(C)c3c(=N)n2-c2ccc(C)cc2)cc1 40.4% [activator], COc1ccc(C(=O)NC(=S)N2CCCCC2)cc1 183% [activator] [at 57.5 µM], O=C(N/C=C/c1ccco1)NCc1ccccc1 36.4% [activator], CCOC(=O)C1CCCN(C(=O)c2ccccc2NC(=O)c2nsc3ccccc23)C1 (configuration not stated) -42.3% [activator]

Potency, inconclusive:
O=C(N/N=C/c1ccc2c(c1)OCO2)c1cc2ccccc2o1 100 µM [activator, single point], COc1ccc(F)cc1S(=O)(=O)n1cnc2ccccc21 126 µM [activator, single point], COc1ccc(CC(=O)NNC(=S)NC(=O)c2cccnc2)cc1 141 µM [activator, single point], CC(=O)N1CCC(=NNS(=O)(=O)c2ccc(C)c([N+](=O)[O-])c2)CC1 39.8 µM [activator, single point], COCCCNC(=O)c1ccc2c(c1)nc1n2CCCCC1 141 µM [activator, single point], COc1ccc(Cc2nnc(NS(=O)(=O)Cc3ccccc3)s2)cc1 1.26 µM [activator, full curve, poor fit], Cc1ccc(NC(=O)c2cccs2)cc1NC(=O)c1ccccc1Cl 63.1 µM [activator, single point], CCOC(=O)c1c(C)[nH]c(C)c1S(=O)(=O)N(C)CC(=O)NCc1cccc(Br)c1 12.6 µM [activator, partial curve], C=CCOc1ccc(Cl)cc1CNC1CCCC1 126 µM [activator, single point], O=C(NCc1ccc(F)cc1)c1c2c(nc3ccccc13)C(=O)N(C1CCCCC1)C2 89.1 µM [activator, partial curve, poor fit], CCOC(=O)c1cc(CC)sc1N1C(=O)CC(Sc2ncccc2C(=O)O)C1=O (configuration not stated) 56.2 µM [activator, single point], COc1ccc2c(c1)c1ccccc1n2C 50.1 µM [activator, partial curve, poor fit], CNc1c(NC(=O)c2ccc3c(c2)OCO3)c(=O)oc2ccccc12 100 µM [activator, single point], COc1ccc(CCN2C(=O)CCC2(C)C(=O)NCc2cccnc2)cc1OC (configuration not stated) 79.4 µM [activator, partial curve, poor fit], COC(=O)C(C(=O)NCC1CCCO1)C1CCCC1 (configuration not stated) 44.7 µM [activator, single point], CCC(=O)NC(=S)Nc1ccccc1OC 50.1 µM [activator, partial curve, poor fit], CSc1nc(NCC(C)C)c2c3c(sc2n1)CN(C)CC3 0.153 µM [activator, full curve, poor fit], CCC(=O)Nc1cccc(NC(=O)CSc2nnc(-c3ccc(NS(C)(=O)=O)cc3)n2C)c1 89.1 µM [activator, partial curve, poor fit], CN1CCN(CCCNC(=O)C2CC(=O)N(C3CCCCC3)C2)CC1 (configuration not stated) 39.8 µM [activator, single point], COC(=O)CCc1c(C)c(C(=O)c2cc(F)c(F)c(F)c2F)c2ccccn12 50.1 µM [activator, partial curve, poor fit], CCCCc1ccc(-c2csc(/C(C#N)=C\c3ccc(C)o3)n2)cc1 39.8 µM [activator, single point], CCC(C)(C(=O)NC1CCCCC1)N(C)C(=O)c1ccc2c(c1)OCO2 (configuration not stated) 5.62 µM [activator, full curve, poor fit], Cc1ccc2cc(C)c3nnc(SCc4ccc(C(=O)O)cc4)n3c2c1C 31.6 µM [activator, single point]

Potency, active:
CCCCCC(=O)Nc1nc(C)c(-c2csc(Nc3cc(OC)ccc3OC)n2)s1 44.7 µM

Potency, inactive:
O=[N+]([O-])c1ccc(S(=O)(=O)Nc2ccncc2)cc1, CCC(C(=O)NCCc1ccco1)n1nc(C)c2c(C)n(-c3ccccc3)nc2c1=O (configuration not stated), COc1ccc(NC(=O)C2CCN(S(=O)(=O)c3cc(-c4noc(C)n4)ccc3C)CC2)cc1, COc1ccc(C(=O)/C(C#N)=N/Nc2ccc([N+](=O)[O-])cc2)cc1, COc1cccc(C(C)(O)c2nc(-c3ccoc3)cs2)c1 (configuration not stated), CCOC(=O)CN(C(=O)COC(=O)C1(c2ccccc2)CC1)c1ccc(F)cc1, N=C(N)SCc1ccc(Cl)cc1Cl, Cc1ccc(S(=O)(=O)Nc2ccc(Br)cc2/C=N/n2cnnc2)cc1, O=C(c1ccc(-c2ccccc2Cl)s1)N1CCOCC1, CCCc1c(O)nc(SCC(=O)NCc2ccco2)[nH]c1=O, CN(Cc1ccccc1F)C(=O)c1ccc(Oc2ccccc2)cc1, O=C(c1ccc([N+](=O)[O-])cc1)n1nc(-c2ccccc2)nc1NCc1ccccc1, CCCCCCCC(=O)N/N=C/c1ccc([N+](=O)[O-])o1, CC1(C)CC(=O)c2cc(OCC(=O)N3CCCCCC3)ccc2O1, CC(C)c1ccc(NC(=O)Nc2nnc([C@H]3C[C@H](O)[C@@H](CO)O3)s2)cc1
